Results are given in words; binding and its absence hold for the method and conditions named. Binding seen in cells or lysates may run through a third protein. For some of these results: A result given as binding can be weak or reduced; the word gives no strength. Where a sequence is shown, tags or fusion partners need not be part of it.

Holding throughout (experiment): co-IP; A549 cells coexpressing HA-NS2 and Flag-BH3, Flag-CCD, Flag-ECD or Flag-RIG-I-C; IP with anti-Flag antibody, immunoblot with anti-HA
Background: A western blot detects proteins with antibodies after separation by electrophoresis.

In test [1] the target is Flag-tagged BH3 domain of Beclin1 (human).
Test [2] deals with Flag-tagged C-terminal domain of RIG-I protein.
Test [3] addresses Flag-tagged coiled-coil domain (CCD) of Beclin1 (human).
The target of test [4] is Flag-tagged evolutionary conserved domain (ECD) of Beclin1 (human).

B1: HA-tagged RSV NS2 protein (protein, UniProt P04543 1-124)
chain: MDTTHNDNTPQRLMITDMRPLSLETIITSLTRDIITHKFIYLINHECIVRKLDERQATFTFLVNYEMKLLHKVGSTKYKKYTEYNTKYGTFPMPIFINHDGFLECIGIKPTKHTPIIYKYDLNP
As for B1, the binding result is listed as “binds” in test [1], “no binding” in test [2], “binds” in test [3] and “binds” in test [4].

Values taken from PMC8764521.
